{"source": "patent US20170142972A1", "about": "“ANTIMICROBIAL COMPOSITION INHIBITS BACTERIA AND FUNGI” (Troy Corporation, priority 2017, published 2017)", "system": "Pseudomonas aeruginosa (ATCC #10145), Escherichia coli (ATCC #11229), Enterobacter aerogenes (ATCC #13048), and Alcaligenes faecalis (ATCC #25094)", "test": "Challenge Method for Quantifying Antibacterial Effectiveness (two 7-day cycles, mixed bacterial inoculum)", "assay_type": "cell-based", "details": "agent alone", "protocol": "In order to quantify the relative antibacterial effectiveness of an antimicrobial composition, samples are prepared by adding various amounts of the antimicrobial composition to identical volumes of a sterile test material. […] Each of the samples is subjected to a two-part challenge procedure and the sample that provides acceptable anti-bacterial protection with the lowest concentration of the antimicrobial composition is identified. Each part of the anti-bacterial challenge consists of a 7-day test cycle. The parts are performed consecutively over 14 test days. […] Challenge testing is accomplished using a mixed bacterial inoculum as the contamination event. These bacteria are Pseudomonas aeruginosa (ATCC #10145), Escherichia coli (ATCC #11229), Enterobacter aerogenes (ATCC #13048), and Alcaligenes faecalis (ATCC #25094). To make the test inoculum, each type of bacteria is grown separately in nutrient broth. Just before use in the challenge test, equal volumes of the four types of bacteria are blended together to make a mixed inoculum. After incubation, both control blanks and samples containing preservative are inoculated with the mixed inoculum. […] Performance ratings of 0, 1, 2, 3 or 4 for each test sample are determined by visual inspection according to the definitions set forth below in Table 1. […]", "data": [{"smiles": "CCCCCCCCCCCCCCCC[n+]1ccccc1", "note": "[CPC, cetyl pyridinium chloride]", "values": [{"measurement": "concentration alone required to provide the required protection against bacterial growth on Test Day 14", "setting": "adhesive", "result": "more than 0.5%"}, {"measurement": "concentration alone required to provide the required protection against bacterial growth on Test Day 14", "setting": "paint", "result": "more than 0.5%"}]}]}
